Taken from: PubChem BioAssay AID1259405 (NCATS, 2018)
Shown is an unselected part of about 50,000 deposited reagents. About 4,000 of them (8%) count as active. 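Mouse siRNA library applied to hamster cells; one well for each siRNA.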 A number with no mark means an inactive call. Reagents against one gene are numbered here.

Test: 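Silenced genes that increase secreted GFP made by CHO cells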 (primary screen)
System: Chinese hamster CHO-K1 ovary cells with stable secreted eGFP expression
Knock-down reagent: single siRNA against mouse genes, 0.8 pmol siRNA per well (2 µl of 400 nM stock)
Timing: 3 days
Detection: 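Per-well intracellular GFP measured by laser scanning cytometry, plus viability from ATP luminescence, each relative to plate median of non-targeting control wells, in %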
Scale: GFP, % of control: higher = more GFP per well, higher productivity; viability (ATP), % of control: higher = more viable cells (more ATP)
Call rule: 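Called active when intracellular GFP, relative to negative control, is at or above 120%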

The first 3 entries, ahead of the listing:
no.	target	siRNA no.	GFP, % of control	viability (ATP), % of control
1	Ambra1 (autophagy/beclin 1 regulator 1)	1	88.2	93.1
2	Ambra1 (autophagy/beclin 1 regulator 1)	2	80	42.8
3	Ambra1 (autophagy/beclin 1 regulator 1)	3	65.7	94.3

Main list, from the start:
no.	target	siRNA no.	GFP, % of control	viability (ATP), % of control
1	Ambra1 (autophagy/beclin 1 regulator 1)	1	88.2	93.1
2	Ambra1 (autophagy/beclin 1 regulator 1)	2	80	42.8
3	Ambra1 (autophagy/beclin 1 regulator 1)	3	65.7	94.3
4	Scrn2 (secernin 2)	1	111	106
5	Scrn2 (secernin 2)	2	39.8	59.2
6	Scrn2 (secernin 2)	3	70.8	83.7
7	Nectin2 (nectin cell adhesion molecule 2)	1	34.4	28.3
8	Nectin2 (nectin cell adhesion molecule 2)	2	105	91.2
9	Nectin2 (nectin cell adhesion molecule 2)	3	58.9	80.2
10	Rpe65 (retinal pigment epithelium 65)	1	83.8	99.7
11	Rpe65 (retinal pigment epithelium 65)	2	48.3	52.1
12	Rpe65 (retinal pigment epithelium 65)	3	81.3	73.6
13	Top1 (topoisomerase (DNA) I)	1	77.5	72.6
14	Top1 (topoisomerase (DNA) I)	2	83.4	69.5
15	Top1 (topoisomerase (DNA) I)	3	79.3	82.9
16	Ap4s1 (adaptor-related protein complex AP-4, sigma 1)	1	103	60.9
17	Ap4s1 (adaptor-related protein complex AP-4, sigma 1)	2	46.7	42.6
18	Ap4s1 (adaptor-related protein complex AP-4, sigma 1)	3	58.9	91.3
19	Ippk (inositol 1,3,4,5,6-pentakisphosphate 2-kinase)	1	97.8	98.9
20	Ippk (inositol 1,3,4,5,6-pentakisphosphate 2-kinase)	2	110	81.7
21	Ppp1r11 (protein phosphatase 1, regulatory inhibitor subunit 11)	1	97.1	95.9
22	Ppp1r11 (protein phosphatase 1, regulatory inhibitor subunit 11)	2	55.8	66.3
23	Cit (citron)	1	95.2	74.6
24	Fuom (fucose mutarotase)	1	78.4	62.6
25	Fuom (fucose mutarotase)	2	20.9	22.5
26	Fuom (fucose mutarotase)	3	60.6	87.2
27	Srpk3 (serine/arginine-rich protein specific kinase 3)	1	51.1	51
28	Tbx10 (T-box 10)	1	197 (active)	95.5
29	Tbx10 (T-box 10)	2	44.1	47
30	Tbx10 (T-box 10)	3	34.7	52
31	Or2w25 (olfactory receptor family 2 subfamily W member 25)	1	49.1	57.9
32	Or2w25 (olfactory receptor family 2 subfamily W member 25)	2	53	69.9
33	Or2w25 (olfactory receptor family 2 subfamily W member 25)	3	53.2	98.7
34	Or4e5 (olfactory receptor family 4 subfamily E member 5)	1	83.7	77.7
35	Or4e5 (olfactory receptor family 4 subfamily E member 5)	2	117	69.7
36	Or4e5 (olfactory receptor family 4 subfamily E member 5)	3	72.4	97
37	Cfh (complement component factor h)	1	58.8	65.9
38	Cfh (complement component factor h)	2	48.9	43.7
39	Cfh (complement component factor h)	3	99.3	81.7
40	Prss23 (serine protease 23)	1	91.3	70.5
41	Prss23 (serine protease 23)	2	71.1	72
42	Prss23 (serine protease 23)	3	31.7	25.5
43	Vps26b (VPS26 retromer complex component B)	1	60.7	77
44	Vps26b (VPS26 retromer complex component B)	2	112	94.1
45	Vps26b (VPS26 retromer complex component B)	3	80.9	83.4
46	Rad1 (RAD1 checkpoint DNA exonuclease)	1	102	79.5
47	Rad1 (RAD1 checkpoint DNA exonuclease)	2	73.2	92.1
48	Rad1 (RAD1 checkpoint DNA exonuclease)	3	76.7	84.1
49	Dnase1 (deoxyribonuclease I)	1	59.5	55.1
50	Dnase1 (deoxyribonuclease I)	2	75.8	64
51	Atp9b (ATPase, class II, type 9B)	1	93.4	118
52	Atp9b (ATPase, class II, type 9B)	2	72.6	91.9
53	Atp9b (ATPase, class II, type 9B)	3	81.9	80.3
54	Dync2i1 (dynein 2 intermediate chain 1)	1	81.7	68.3
55	Dync2i1 (dynein 2 intermediate chain 1)	2	140 (active)	82
56	Dync2i1 (dynein 2 intermediate chain 1)	3	104	76.5
57	Uhrf2 (ubiquitin-like, containing PHD and RING finger domains 2)	1	76.6	88.6
58	Uhrf2 (ubiquitin-like, containing PHD and RING finger domains 2)	2	28.3	38.2
59	Uhrf2 (ubiquitin-like, containing PHD and RING finger domains 2)	3	83.2	123
60	Ndufa13 (NADH:ubiquinone oxidoreductase subunit A13)	1	65.2	73.1
61	Ndufa13 (NADH:ubiquinone oxidoreductase subunit A13)	2	98.7	73.3
62	Ndufa13 (NADH:ubiquinone oxidoreductase subunit A13)	3	92.3	82.3
63	1700123O20Rik (RIKEN cDNA 1700123O20 gene)	1	80	73.4
64	1700123O20Rik (RIKEN cDNA 1700123O20 gene)	2	82.9	72.2
65	1700123O20Rik (RIKEN cDNA 1700123O20 gene)	3	67.4	62.1
66	L2hgdh (L-2-hydroxyglutarate dehydrogenase)	1	64.5	82.3
67	L2hgdh (L-2-hydroxyglutarate dehydrogenase)	2	77.5	60.9
68	L2hgdh (L-2-hydroxyglutarate dehydrogenase)	3	83	100
69	Or56b35 (olfactory receptor family 56 subfamily B member 35)	1	59.5	55.8
70	Or56b35 (olfactory receptor family 56 subfamily B member 35)	2	53.3	57.9
71	Or56b35 (olfactory receptor family 56 subfamily B member 35)	3	47.3	67.3
72	Ehmt2 (euchromatic histone lysine N-methyltransferase 2)	1	60.8	85
73	Ehmt2 (euchromatic histone lysine N-methyltransferase 2)	2	64.7	85.7
74	Ehmt2 (euchromatic histone lysine N-methyltransferase 2)	3	55.6	77.9
75	Epha8 (Eph receptor A8)	1	64.7	74.3
76	Epha8 (Eph receptor A8)	2	78.6	89.9
77	Epha8 (Eph receptor A8)	3	62.1	48.3
78	Ebp (EBP cholestenol delta-isomerase)	1	93.7	103
79	Ebp (EBP cholestenol delta-isomerase)	2	92.7	102
80	Ebp (EBP cholestenol delta-isomerase)	3	43.8	61.5
81	Clec14a (C-type lectin domain family 14, member a)	1	82.8	106
82	Clec14a (C-type lectin domain family 14, member a)	2	82.8	87.3
83	Clec14a (C-type lectin domain family 14, member a)	3	112	105
84	Tmem126a (transmembrane protein 126A)	1	64.8	64.4
85	Tmem126a (transmembrane protein 126A)	2	77.6	80.6
86	Tmem126a (transmembrane protein 126A)	3	62.4	88
